Results as given in patent US8765783B2, “Pharmaceutical composition for treatment of disease due to vascular constriction or vasodilation” (Ono Pharmaceuticals Co., Ltd., priority 2002, dated 2014).

Test system: removed rat heart
Assay: Removed rat heart (Langendorff heart)
Conditions: Langendorff heart mode
From the text: Rat (CD(SD)IGS, male, Charles River Japan Inc., 8 weeks old-10 weeks old, 300-450 g) was anesthetized by diethylether, opened the abdominal cavity, injected intravenously with heparin and then, exsanguinated to death. The heart was quickly removed by opening the chest cavity and the removed heart was immersed into cooled Krebs-Henseleit solution. The tissues were trimmed away under the cooling, aortic arches were inserted into the heart functional measuring equipment and fixed with sutures without leaking out. The rat heart function was measured using the heart functional measuring equipment (model IPH-W2, Labo-support). The equipment was used in the Langendorff Heart mode (non-working heart mode) and load was 68-70 mmHg. […] Catheter filled with physiological saline was inserted into the left ventricle, the catheter was connected to the piezotransducer (DX-100, Nihon Kohden) and the left ventricle pressure (LVP) was measured through strain compression amplifier (AP-601G, Nihon Kohden). Heart rate was calculated using LVP data with the heart rate measuring equipment (AT-601G, Nihon Kohden) and dLVP/dt was calculated with differential processor (EQ-641G, Nihon Kohden). Probes of electromagnetic flowmeter (model FF-020T, inside diameter 2 mm, Nihon Kohden) were set on the way to the passage of nutrient solution and the flow rate of nutrient solution (corresponding the blood flow rate of coronary artery) was measured using electromagnetic flowmeter (MFV-3100, Nihon Kohden). Administration of S1P and the compounds was performed by injection of dilution with nutrient solution into the passage of nutrient solution using infusion pump. The injection rate of drug solution was set as the flow rate of nutrient solution before starting of administration. […] Using the above mentioned model, effect of EDG-5 antagonist on heart function was examined. […] EDG-5 antagonist, the compound (1), the compound (2) and the compound (3) increased the flow rate of nutrient solution. In addition, they increased contractive force of heart muscle at the same time. […]

SMILES | effect on heart rate
Cc1nn(C)c2nc(NNC(=O)Nc3c(Cl)cncc3Cl)cc(C(C)C)c12 [compound (1), N-(1H-1,3-dimethyl-4-isopropylpyrazolo[3,4-b]pyridin-6-yl)amino-N′-(3,5-dichloropyridin-4-yl)urea] | little effect
O=C(Nc1cccc(C(F)(F)F)c1)N1CCC(O)(c2ccc(Br)cc2)CC1 [compound (2), 4-(4-bromophenyl)-4-hydroxy-N-(3-(trifluoromethyl)phenyl)-1-piperidinecarboxamide] | little effect
Cc1nn(C)c2nc(NNC(=O)Nc3cc(Cl)nc(Cl)c3)cc(C(C)C)c12 [compound (3), N-(2,6-dichloro-4-piridinyl)-2-(4-isopropyl-1,3-dimethyl-1H-pyrazolo[3,4-b]pyridin-6-yl)hydrazinecarboxamide] | little effect
